Results published in paper PMC10057503.
No constants are given. Whether binding was seen depends on the method and setting. Binding calls can cover weak binding; strength is not graded here. Sequences can lack the tags named with a protein. For some assays here: In cells and extracts the contact can be indirect.

By UniProt entry, the sequences of proteins in these tests, tags left out. Where a name states a change or a piece, a line headed by the entry shows the natural chain unless it says otherwise.
UniProt Q0E476: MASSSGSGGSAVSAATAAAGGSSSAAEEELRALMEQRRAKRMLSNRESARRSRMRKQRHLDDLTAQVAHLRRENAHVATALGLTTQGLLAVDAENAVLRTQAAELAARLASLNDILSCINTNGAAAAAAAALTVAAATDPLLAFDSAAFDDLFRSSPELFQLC

Experiments:
[1] = target: OsbZIP14 (BiFC fusion from pRTVnVC-OsbZIP14) (rice (Nipponbare cDNA)) (UniProt Q0E476); assay: split reporter; BiFC in rice protoplasts co-transformed with pRTVnVC-OsbZIP14 and pRTVnVN-OsbZIP58; confocal microscopy after 9 h culture; controls with the corresponding empty plasmids
[2] = target: OsbZIP14 (yeast two-hybrid bait from PGBKT7-OsbZIP14) (rice (Nipponbare cDNA)) (UniProt Q0E476); assay: two-hybrid; pairwise Y2H of OsbZIP14 and OsbZIP58, named only in the discussion; no details given

| binding [1] | binding [2] | Binder |
| --- | --- | --- |
| binds |  | OsbZIP58 (BiFC fusion from pRTVnVN-OsbZIP58) (protein, UniProt Q6ZLB0 1-436) MEHVFAVDEIPDPLWAPPPPVQPAAAAGVDDVGAVSGGGLLERCPSGWNLERFLEELDGVPAPAASPDGAAIYPSPMPAAAAEAAARWSRGYGDREAVGVMPMPAAALPAAPASAAMDPVEYNAMLKRKLDEDLATVAMWRASGAIHSESPLGNKTSLSIVGSILSSQKCIEGNGILVQTKLSPGPNGGSGPYVNQNTDAHAKQATSGSSREPSPSEDDDMEGDAEAMGNMILDEEDKVKKRKESNRESARRSRSRKAARLKDLEEQVSLLRVENSSLLRRLADANQKYSAAAIDNRVLMADIEALRAKVRMAEESVKMVTGARQLHQAIPDMQSPLNVNSDASVPIQNNNPMNYFSNANNAGVNSFMHQVSPAFQIVDSVEKIDPTDPVQLQQQQMASLQHLQNRACGGGASSNEYTAWGSSLMDANELVNMELQ |
|  | binds | OsbZIP58 (pairwise yeast two-hybrid fusion) (protein, UniProt Q6ZLB0 1-436) MEHVFAVDEIPDPLWAPPPPVQPAAAAGVDDVGAVSGGGLLERCPSGWNLERFLEELDGVPAPAASPDGAAIYPSPMPAAAAEAAARWSRGYGDREAVGVMPMPAAALPAAPASAAMDPVEYNAMLKRKLDEDLATVAMWRASGAIHSESPLGNKTSLSIVGSILSSQKCIEGNGILVQTKLSPGPNGGSGPYVNQNTDAHAKQATSGSSREPSPSEDDDMEGDAEAMGNMILDEEDKVKKRKESNRESARRSRSRKAARLKDLEEQVSLLRVENSSLLRRLADANQKYSAAAIDNRVLMADIEALRAKVRMAEESVKMVTGARQLHQAIPDMQSPLNVNSDASVPIQNNNPMNYFSNANNAGVNSFMHQVSPAFQIVDSVEKIDPTDPVQLQQQQMASLQHLQNRACGGGASSNEYTAWGSSLMDANELVNMELQ |
